# Structures can show the parent of a compound that is named as a salt. The list shows a part of the results. Hit calls seldom repeat between salt and free forms of one compound.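 Kinases, fused to nanoluciferase, were expressed in K562 cells; luminescence was measured every 4 h from 2 to 18 h as percent of control (DMSO = 100%, positive control = 0%). A time point is decreased if signal falls significantly (2 sigma). Hits were called by the authors by a rule that is not shown; the count of time points alone does not decide it.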
# Protein sequences, listed by entry. Tags and fused reporters are not part of them. Lines headed by an entry give the natural chain unless they say otherwise; changes in a name come on top.
# UniProt P07949, whole entry, looked up: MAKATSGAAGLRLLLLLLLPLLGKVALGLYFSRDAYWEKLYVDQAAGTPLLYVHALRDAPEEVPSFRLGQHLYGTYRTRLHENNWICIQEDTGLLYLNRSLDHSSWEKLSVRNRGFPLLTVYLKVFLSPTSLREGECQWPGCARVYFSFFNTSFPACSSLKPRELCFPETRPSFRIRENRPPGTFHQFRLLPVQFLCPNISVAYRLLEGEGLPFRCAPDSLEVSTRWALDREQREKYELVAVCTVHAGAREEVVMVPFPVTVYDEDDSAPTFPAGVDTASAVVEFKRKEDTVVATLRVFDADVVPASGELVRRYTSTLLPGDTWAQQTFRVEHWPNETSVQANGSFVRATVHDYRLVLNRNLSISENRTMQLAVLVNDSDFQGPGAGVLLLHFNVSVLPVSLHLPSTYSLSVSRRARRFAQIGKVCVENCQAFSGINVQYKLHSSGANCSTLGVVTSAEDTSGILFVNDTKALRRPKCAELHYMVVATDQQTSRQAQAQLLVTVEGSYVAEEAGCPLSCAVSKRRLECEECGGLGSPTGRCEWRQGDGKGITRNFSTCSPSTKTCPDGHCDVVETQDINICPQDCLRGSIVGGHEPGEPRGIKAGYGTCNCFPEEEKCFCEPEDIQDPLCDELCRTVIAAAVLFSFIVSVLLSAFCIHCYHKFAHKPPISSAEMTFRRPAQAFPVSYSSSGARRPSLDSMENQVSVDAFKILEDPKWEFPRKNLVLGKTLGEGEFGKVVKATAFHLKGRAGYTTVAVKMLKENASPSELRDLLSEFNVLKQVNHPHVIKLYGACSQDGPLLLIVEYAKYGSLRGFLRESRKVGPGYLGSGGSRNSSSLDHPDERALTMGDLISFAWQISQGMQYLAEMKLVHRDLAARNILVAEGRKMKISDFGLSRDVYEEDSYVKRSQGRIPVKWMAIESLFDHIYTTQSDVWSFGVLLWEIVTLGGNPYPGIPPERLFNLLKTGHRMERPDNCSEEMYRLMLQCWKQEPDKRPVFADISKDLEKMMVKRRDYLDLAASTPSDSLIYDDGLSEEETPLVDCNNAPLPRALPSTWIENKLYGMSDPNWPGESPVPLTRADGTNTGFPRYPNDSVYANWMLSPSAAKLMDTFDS
# UniProt P07949, whole entry M918T, looked up: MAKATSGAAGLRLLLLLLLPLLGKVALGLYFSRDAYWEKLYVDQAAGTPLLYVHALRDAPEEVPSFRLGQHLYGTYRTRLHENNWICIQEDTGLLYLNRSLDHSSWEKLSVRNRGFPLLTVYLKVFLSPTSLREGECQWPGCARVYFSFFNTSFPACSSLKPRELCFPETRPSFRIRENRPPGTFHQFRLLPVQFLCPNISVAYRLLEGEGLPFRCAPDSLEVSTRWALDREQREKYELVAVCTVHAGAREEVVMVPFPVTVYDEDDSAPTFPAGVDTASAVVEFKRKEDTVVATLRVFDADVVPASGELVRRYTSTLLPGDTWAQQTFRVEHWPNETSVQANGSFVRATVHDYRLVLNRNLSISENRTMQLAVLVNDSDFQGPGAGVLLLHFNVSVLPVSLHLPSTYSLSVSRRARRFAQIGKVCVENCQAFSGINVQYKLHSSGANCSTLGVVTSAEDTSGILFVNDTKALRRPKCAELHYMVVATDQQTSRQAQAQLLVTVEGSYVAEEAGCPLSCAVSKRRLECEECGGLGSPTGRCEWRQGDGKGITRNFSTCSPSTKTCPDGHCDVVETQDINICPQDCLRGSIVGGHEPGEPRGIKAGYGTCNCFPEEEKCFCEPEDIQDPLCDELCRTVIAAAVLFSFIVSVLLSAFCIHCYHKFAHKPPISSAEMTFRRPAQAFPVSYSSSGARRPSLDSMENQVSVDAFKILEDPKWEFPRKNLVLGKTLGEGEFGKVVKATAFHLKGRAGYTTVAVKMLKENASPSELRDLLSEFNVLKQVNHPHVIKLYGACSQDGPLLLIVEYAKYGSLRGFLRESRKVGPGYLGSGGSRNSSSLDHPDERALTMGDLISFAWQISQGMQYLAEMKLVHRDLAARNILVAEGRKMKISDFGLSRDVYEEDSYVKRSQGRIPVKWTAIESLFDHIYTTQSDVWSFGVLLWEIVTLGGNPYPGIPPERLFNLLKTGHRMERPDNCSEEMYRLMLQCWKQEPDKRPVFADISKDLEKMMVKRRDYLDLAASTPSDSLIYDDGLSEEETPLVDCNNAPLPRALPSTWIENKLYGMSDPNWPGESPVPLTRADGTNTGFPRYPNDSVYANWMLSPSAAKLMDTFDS
# UniProt Q13546: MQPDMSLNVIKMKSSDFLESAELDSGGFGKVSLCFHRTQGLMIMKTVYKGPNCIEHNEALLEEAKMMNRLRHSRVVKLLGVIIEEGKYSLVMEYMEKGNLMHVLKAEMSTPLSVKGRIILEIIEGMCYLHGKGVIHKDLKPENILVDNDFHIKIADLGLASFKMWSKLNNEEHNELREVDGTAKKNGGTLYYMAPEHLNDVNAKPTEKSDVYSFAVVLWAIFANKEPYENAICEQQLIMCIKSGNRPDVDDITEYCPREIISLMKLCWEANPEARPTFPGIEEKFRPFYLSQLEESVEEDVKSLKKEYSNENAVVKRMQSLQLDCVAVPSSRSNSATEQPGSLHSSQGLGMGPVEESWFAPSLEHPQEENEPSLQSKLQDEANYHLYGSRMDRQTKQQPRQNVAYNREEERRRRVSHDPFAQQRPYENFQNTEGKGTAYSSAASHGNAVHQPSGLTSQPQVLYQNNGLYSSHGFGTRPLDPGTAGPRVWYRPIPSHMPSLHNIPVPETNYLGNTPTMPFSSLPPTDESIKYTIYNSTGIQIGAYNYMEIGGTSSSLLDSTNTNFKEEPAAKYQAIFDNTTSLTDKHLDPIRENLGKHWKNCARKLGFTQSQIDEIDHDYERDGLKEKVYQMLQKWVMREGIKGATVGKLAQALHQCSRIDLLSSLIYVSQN
# UniProt Q15418, whole entry: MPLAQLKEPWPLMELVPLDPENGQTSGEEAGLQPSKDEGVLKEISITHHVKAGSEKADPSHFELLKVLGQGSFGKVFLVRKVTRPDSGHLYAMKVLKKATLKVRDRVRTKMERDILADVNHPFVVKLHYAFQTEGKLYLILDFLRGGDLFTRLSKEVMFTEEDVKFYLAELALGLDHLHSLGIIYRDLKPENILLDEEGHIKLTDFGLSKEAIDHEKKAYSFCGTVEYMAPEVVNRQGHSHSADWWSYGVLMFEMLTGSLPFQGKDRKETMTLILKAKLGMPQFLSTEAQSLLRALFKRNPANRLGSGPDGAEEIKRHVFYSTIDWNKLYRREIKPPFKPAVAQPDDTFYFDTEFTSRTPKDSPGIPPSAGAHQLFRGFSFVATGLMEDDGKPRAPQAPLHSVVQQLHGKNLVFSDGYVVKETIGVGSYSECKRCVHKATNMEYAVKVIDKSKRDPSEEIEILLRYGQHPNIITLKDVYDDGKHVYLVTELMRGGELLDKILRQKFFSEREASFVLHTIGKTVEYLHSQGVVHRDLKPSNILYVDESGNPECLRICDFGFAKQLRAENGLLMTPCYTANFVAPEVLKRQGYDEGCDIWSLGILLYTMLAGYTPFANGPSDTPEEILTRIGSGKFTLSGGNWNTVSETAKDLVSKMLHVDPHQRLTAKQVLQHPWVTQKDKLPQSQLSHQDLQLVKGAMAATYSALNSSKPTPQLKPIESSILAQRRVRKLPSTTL
# UniProt Q9NYA1, whole entry: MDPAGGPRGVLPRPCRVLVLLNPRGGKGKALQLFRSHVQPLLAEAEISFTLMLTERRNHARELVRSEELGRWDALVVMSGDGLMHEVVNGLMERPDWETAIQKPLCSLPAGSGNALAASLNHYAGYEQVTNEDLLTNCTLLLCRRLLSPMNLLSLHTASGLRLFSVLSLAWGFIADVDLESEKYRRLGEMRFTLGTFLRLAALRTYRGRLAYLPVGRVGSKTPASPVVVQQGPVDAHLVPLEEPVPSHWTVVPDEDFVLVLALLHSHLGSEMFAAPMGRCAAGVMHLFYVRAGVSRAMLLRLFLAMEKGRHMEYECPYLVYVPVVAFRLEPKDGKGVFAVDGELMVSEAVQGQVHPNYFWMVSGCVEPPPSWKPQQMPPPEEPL
# UniProt Q9Y6E0: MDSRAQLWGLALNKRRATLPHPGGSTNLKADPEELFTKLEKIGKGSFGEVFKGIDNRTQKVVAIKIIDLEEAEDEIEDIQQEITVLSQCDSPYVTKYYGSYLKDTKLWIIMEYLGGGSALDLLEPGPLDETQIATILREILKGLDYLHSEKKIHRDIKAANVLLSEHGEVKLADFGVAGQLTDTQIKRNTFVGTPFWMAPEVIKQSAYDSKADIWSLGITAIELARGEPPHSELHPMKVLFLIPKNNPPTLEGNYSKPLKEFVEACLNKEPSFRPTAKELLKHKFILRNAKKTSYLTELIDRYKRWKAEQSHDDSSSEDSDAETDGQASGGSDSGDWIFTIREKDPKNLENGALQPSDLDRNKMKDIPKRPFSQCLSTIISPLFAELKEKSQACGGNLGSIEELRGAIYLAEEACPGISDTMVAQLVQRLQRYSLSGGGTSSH
# UniProt Q15208: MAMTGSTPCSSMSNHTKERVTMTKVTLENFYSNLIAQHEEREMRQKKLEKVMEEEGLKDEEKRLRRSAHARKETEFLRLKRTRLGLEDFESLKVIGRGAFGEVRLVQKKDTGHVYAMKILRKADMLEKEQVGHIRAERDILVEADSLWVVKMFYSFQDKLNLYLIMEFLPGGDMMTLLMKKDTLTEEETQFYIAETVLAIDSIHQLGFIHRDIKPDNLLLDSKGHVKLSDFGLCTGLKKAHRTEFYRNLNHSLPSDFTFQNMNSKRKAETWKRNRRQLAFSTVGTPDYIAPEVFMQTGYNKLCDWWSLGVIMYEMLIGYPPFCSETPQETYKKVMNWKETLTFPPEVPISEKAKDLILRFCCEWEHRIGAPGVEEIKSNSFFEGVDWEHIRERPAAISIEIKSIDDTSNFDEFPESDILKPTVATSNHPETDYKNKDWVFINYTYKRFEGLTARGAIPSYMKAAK
# UniProt P42680: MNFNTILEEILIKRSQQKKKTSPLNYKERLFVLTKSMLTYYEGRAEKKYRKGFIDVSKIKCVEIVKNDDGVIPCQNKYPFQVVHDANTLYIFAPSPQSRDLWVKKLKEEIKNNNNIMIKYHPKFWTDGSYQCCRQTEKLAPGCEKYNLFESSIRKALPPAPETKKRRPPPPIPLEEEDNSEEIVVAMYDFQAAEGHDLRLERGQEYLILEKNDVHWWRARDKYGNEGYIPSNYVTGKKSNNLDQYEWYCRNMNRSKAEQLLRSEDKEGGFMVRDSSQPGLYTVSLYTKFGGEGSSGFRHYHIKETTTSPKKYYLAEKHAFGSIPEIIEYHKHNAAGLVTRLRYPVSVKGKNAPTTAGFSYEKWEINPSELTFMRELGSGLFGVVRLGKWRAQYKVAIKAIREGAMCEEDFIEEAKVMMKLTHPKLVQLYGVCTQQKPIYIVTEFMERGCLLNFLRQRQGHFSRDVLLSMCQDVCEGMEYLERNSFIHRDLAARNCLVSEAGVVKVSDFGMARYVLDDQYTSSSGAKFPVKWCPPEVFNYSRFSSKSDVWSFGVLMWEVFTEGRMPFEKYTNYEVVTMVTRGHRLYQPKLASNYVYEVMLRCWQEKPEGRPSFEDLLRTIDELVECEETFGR
# Key:
# Test in all cases: number of time points (of 5) at which kinase-Nluc abundance scored as decreased, DMSO-normalised (count); higher = more persistent destabilization
# Details in all cases: K562; 2-18 h
# PRKCA = PRKCA (UniProt P17252)
# PTK2 = PTK2 (UniProt Q05397)
# PTK2B = PTK2B (UniProt Q14289)
# RAF1 = RAF1 (UniProt P04049)
# [1] = target: RAF1_S257L (clone: RAF1_mut) (UniProt P04049)
# RET = RET (UniProt P07949)
# [2] = target: RET_M918T (clone: RET_mut) (UniProt P07949)
# RIOK1 = RIOK1 (UniProt Q9BRS2)
# RIPK1 = RIPK1 (UniProt Q13546)
# RIPK2 = RIPK2 (UniProt O43353)
# ROR2 = ROR2 (UniProt Q01974)
# RPS6KA1 = RPS6KA1 (UniProt Q15418)
# SPHK1 = SPHK1 (UniProt Q9NYA1)
# SRC = SRC (UniProt P12931)
# STK24 = STK24 (UniProt Q9Y6E0)
# STK38 = STK38 (UniProt Q15208)
# SYK = SYK (UniProt P43405)
# TEC = TEC (UniProt P42680)
# TYK2 = TYK2 (UniProt P29597)
# ULK3 = ULK3 (UniProt Q6PHR2)
SMILES,number of time points (PRKCA),number of time points (PTK2),number of time points (PTK2B),number of time points (RAF1),number of time points [1],number of time points (RET),number of time points [2],number of time points (RIOK1),number of time points (RIPK1),number of time points (RIPK2),number of time points (ROR2),number of time points (RPS6KA1),number of time points (SPHK1),number of time points (SRC),number of time points (STK24),number of time points (STK38),number of time points (SYK),number of time points (TEC),number of time points (TYK2),number of time points (ULK3)
O=C1O[C@H]([C@@H](O)CO)C(O)=C1OP(=O)(O)O [2-Phospho-L-ascorbic acid (trisodium)] (10 µM),0,0,0,0,0,0,0,0,0,0,0,0,0,0,0,0,0,0,0,0
N[C@@H](CCC(=O)O)C(=O)N[C@@H](Cc1c[nH]c2ccccc12)C(=O)O [Oglufanide] (10 µM),0,0,0,0,0,0,0,0,0,0,0,0,0,0,0,0,0,0,0,0
CS(=O)(=O)c1ccc(-c2cnc(N)c(-c3ccc(C(F)(F)F)nc3)c2)cc1 (10 µM),0,0,0,0,0,0,0,0,0,0,0,0,0,0,0,0,0,0,0,0
CC(C)CNc1ccnc(NCc2csc(-c3ccccc3)n2)n1 [KHS101 hydrochloride] (2.5 µM),0,0,0,2,1,0,0,0,1,1,0,0,0,0,0,0,0,0,0,0
Cc1ncc(NC(=O)NC2c3ccccc3-c3ccccc32)c(-c2ccccc2)n1 (10 µM),0,0,0,0,0,0,0,0,0,0,0,0,0,0,0,0,0,0,0,0
O=C(Nc1nc2ccc(NC(=O)C34CC5CC(CC(C5)C3)C4)cc2s1)c1ccccc1 (10 µM),0,0,0,0,0,0,0,0,0,0,0,0,0,0,0,0,0,0,1,0
O=c1[nH]c(C2CCCN2)nc2c1oc1ccc(Cl)cc12 (stereo not given) [XL413 (hydrochloride)] (10 µM),0,0,0,0,0,0,0,0,0,0,0,0,0,0,0,0,0,0,0,0
O=[N+]([O-])c1ccc2c(c1)S(=O)(=O)C=C2 [Stattic] (2.5 µM),0,0,0,1,0,0,0,0,3,3,0,0,0,0,0,0,0,0,3,0
Cc1ccc(NC(=O)c2ccnc(C(F)(F)F)c2)cc1-c1cc(OCCO)nc(N2CCOCC2)c1 (10 µM),0,0,0,0,0,0,0,0,0,0,0,0,0,0,0,0,0,0,0,0
NC(=O)c1cnc2[nH]ccc2c1N[C@@H]1[C@@H]2CC3C[C@H]1C[C@@](O)(C3)C2 [Peficitinib] (10 µM),0,1,0,2,3,0,1,1,3,3,0,0,0,0,0,1,0,3,4,0
Nc1nc(N)c2nc(-c3cccc(O)c3)cnc2n1 (10 µM),0,0,0,0,0,0,0,0,0,0,0,0,0,0,0,0,0,0,0,0
CCN(CC)CCC(=O)N1N=C(c2c(-c3ccccc3)c3cc(Br)ccc3[nH]c2=O)CC1c1ccc(Br)cc1 (stereo not given) (2.5 µM),0,1,0,0,0,0,1,0,0,0,0,0,0,0,0,0,0,0,0,0

# Source: the supplement of paper PMC12823440, “Inhibitors supercharge kinase turnover through native proteolytic circuits” (Nature, 2025)
